According to paper PMC5494602:
These are yes or no findings as the source states them, for the method shown. Binding seen in cells or lysates may run through a third protein. Some results given as binding are weak or reduced against the parent protein; the word gives no strength. Sequences can lack the tags named with a protein.

Target: T1, Flag-IKKε (UniProt Q14164)
T1 sequence: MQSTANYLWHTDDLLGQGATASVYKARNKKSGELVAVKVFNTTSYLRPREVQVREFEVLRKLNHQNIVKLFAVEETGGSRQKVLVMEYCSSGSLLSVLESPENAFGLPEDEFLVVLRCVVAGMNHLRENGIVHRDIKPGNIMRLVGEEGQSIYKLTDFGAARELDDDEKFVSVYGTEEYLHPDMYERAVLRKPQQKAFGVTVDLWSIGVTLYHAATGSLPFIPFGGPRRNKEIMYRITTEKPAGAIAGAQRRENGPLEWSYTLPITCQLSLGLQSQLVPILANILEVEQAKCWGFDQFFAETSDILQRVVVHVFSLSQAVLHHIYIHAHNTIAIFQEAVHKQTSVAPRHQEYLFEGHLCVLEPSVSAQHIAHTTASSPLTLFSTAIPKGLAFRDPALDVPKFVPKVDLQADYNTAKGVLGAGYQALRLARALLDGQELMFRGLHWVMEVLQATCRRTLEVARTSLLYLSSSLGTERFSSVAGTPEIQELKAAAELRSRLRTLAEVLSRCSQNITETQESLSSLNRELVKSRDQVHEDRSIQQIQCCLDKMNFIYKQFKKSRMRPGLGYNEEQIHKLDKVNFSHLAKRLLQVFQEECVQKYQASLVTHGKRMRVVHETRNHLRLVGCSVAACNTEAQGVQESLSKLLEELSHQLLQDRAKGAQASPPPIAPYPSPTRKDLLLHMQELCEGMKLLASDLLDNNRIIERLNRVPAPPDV
Assay: co-IP

HA-MAVS (mitochondrial antiviral signaling protein, full length) (from UniProt Q7Z434-1 1-540)
binding: binds
